Experimental data: the supplement of paper PMC7646827
Single values are uncertain, as repeats are few or missing.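 All cells are established human bladder cancer lines, one of them grown from a patient-derived xenograft. Viability was read by a luminescent ATP assay as percent inhibition versus vehicle over a seven-point dilution series; the paper calls scores above 59 very active, 30–59 active, 21–29 semi-active, 9–20 low active and below 9 inactive.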

What was measured:
Experiment in all cases: drug sensitivity score DSS3 (score 0-100); higher = more sensitive; extreme values may be limits of the assay
Conditions in all cases: culture: 3D, ultra-low attachment; treatment time: 5 days
5637 = test system: 5637
BC8149 = test system: BC8149
J82 = test system: J82
SCaBER = test system: SCaBER
SW780 = test system: SW780
T-24 = test system: T-24
TCCSUP = test system: TCCSUP
UM-UC-12 = test system: UM-UC-12
UM-UC-14 = test system: UM-UC-14
UM-UC-15 = test system: UM-UC-15
UM-UC-17 = test system: UM-UC-17
UM-UC-18 = test system: UM-UC-18
UM-UC-1 = test system: UM-UC-1
UM-UC-3 = test system: UM-UC-3
UM-UC-5 = test system: UM-UC-5
UM-UC-6 = test system: UM-UC-6
UM-UC-9 = test system: UM-UC-9

SMILES: CCn1cc(-c2ccnc3[nH]c(-c4cccc(CN(C)C)c4)cc23)c(-c2ccc(NC(=O)N(C)C)cc2)n1 (max dose 10000 nM)
- drug sensitivity score DSS3 5637: 53.1
- drug sensitivity score DSS3 (BC8149): 16.3
- drug sensitivity score DSS3 (J82): 0
- drug sensitivity score DSS3 (SCaBER): 26.9
- drug sensitivity score DSS3 (SW780): 0
- drug sensitivity score DSS3 (T-24): 0
- drug sensitivity score DSS3 (TCCSUP): 57.2
- drug sensitivity score DSS3 (UM-UC-12): 0.468
- drug sensitivity score DSS3 (UM-UC-14): 29.1
- drug sensitivity score DSS3 (UM-UC-15): 15.2
- drug sensitivity score DSS3 (UM-UC-17): 18.4
- drug sensitivity score DSS3 (UM-UC-18): 18.1
- drug sensitivity score DSS3 (UM-UC-1): 37.7
- drug sensitivity score DSS3 (UM-UC-3): 14.6
- drug sensitivity score DSS3 (UM-UC-5): 21.2
- drug sensitivity score DSS3 (UM-UC-6): 34.9
- drug sensitivity score DSS3 (UM-UC-9): 0

SMILES: O=C(Nc1cc(C(F)(F)F)ccc1N1CCCCC1)c1ccncc1 [SRPIN340] (max dose 10000 nM)
- drug sensitivity score DSS3 5637: 0
- drug sensitivity score DSS3 (BC8149): 0
- drug sensitivity score DSS3 (J82): 0
- drug sensitivity score DSS3 (SCaBER): 0
- drug sensitivity score DSS3 (SW780): 0
- drug sensitivity score DSS3 (T-24): 0
- drug sensitivity score DSS3 (TCCSUP): 0
- drug sensitivity score DSS3 (UM-UC-12): 0
- drug sensitivity score DSS3 (UM-UC-14): 0
- drug sensitivity score DSS3 (UM-UC-15): 0
- drug sensitivity score DSS3 (UM-UC-17): 0
- drug sensitivity score DSS3 (UM-UC-18): 0
- drug sensitivity score DSS3 (UM-UC-1): 0
- drug sensitivity score DSS3 (UM-UC-3): 0.0289
- drug sensitivity score DSS3 (UM-UC-5): 0
- drug sensitivity score DSS3 (UM-UC-6): 0
- drug sensitivity score DSS3 (UM-UC-9): 0

SMILES: N#Cc1c(NC(=O)c2cccc3ccccc23)sc2c1CCCC2 [JNK Inhibitor IX] (max dose 10000 nM)
- drug sensitivity score DSS3 5637: 17.6
- drug sensitivity score DSS3 (BC8149): 12.6
- drug sensitivity score DSS3 (J82): 0
- drug sensitivity score DSS3 (SCaBER): 0.267
- drug sensitivity score DSS3 (SW780): 1.38
- drug sensitivity score DSS3 (T-24): 3.24
- drug sensitivity score DSS3 (TCCSUP): 20.1
- drug sensitivity score DSS3 (UM-UC-12): 14.6
- drug sensitivity score DSS3 (UM-UC-14): 13.8
- drug sensitivity score DSS3 (UM-UC-15): 0.519
- drug sensitivity score DSS3 (UM-UC-17): 22.5
- drug sensitivity score DSS3 (UM-UC-18): 0.0484
- drug sensitivity score DSS3 (UM-UC-1): 0.485
- drug sensitivity score DSS3 (UM-UC-3): 10.2
- drug sensitivity score DSS3 (UM-UC-5): 2.01
- drug sensitivity score DSS3 (UM-UC-6): 6.6
- drug sensitivity score DSS3 (UM-UC-9): 0

SMILES: CC(=O)Nc1nc(C)c(-c2ccc(Cl)c(S(=O)(=O)NCCO)c2)s1 [PIK-93] (max dose 10000 nM)
- drug sensitivity score DSS3 5637: 1.26
- drug sensitivity score DSS3 (BC8149): 2.76
- drug sensitivity score DSS3 (J82): 0.56
- drug sensitivity score DSS3 (SCaBER): 1.92
- drug sensitivity score DSS3 (SW780): 0
- drug sensitivity score DSS3 (T-24): 0.981
- drug sensitivity score DSS3 (TCCSUP): 4.5
- drug sensitivity score DSS3 (UM-UC-12): 1.7
- drug sensitivity score DSS3 (UM-UC-14): 0
- drug sensitivity score DSS3 (UM-UC-15): 0
- drug sensitivity score DSS3 (UM-UC-17): 0
- drug sensitivity score DSS3 (UM-UC-18): 0
- drug sensitivity score DSS3 (UM-UC-1): 0
- drug sensitivity score DSS3 (UM-UC-3): 0
- drug sensitivity score DSS3 (UM-UC-5): 0
- drug sensitivity score DSS3 (UM-UC-6): 0.459
- drug sensitivity score DSS3 (UM-UC-9): 0

SMILES: COc1c(C)cnc(Cn2cnc3c(Cl)nc(N)nc32)c1C [BIIB021] (max dose 10000 nM)
- drug sensitivity score DSS3 5637: 51.9
- drug sensitivity score DSS3 (BC8149): 40.2
- drug sensitivity score DSS3 (J82): 12.4
- drug sensitivity score DSS3 (SCaBER): 39.9
- drug sensitivity score DSS3 (SW780): 21.9
- drug sensitivity score DSS3 (T-24): 29.3
- drug sensitivity score DSS3 (TCCSUP): 55.4
- drug sensitivity score DSS3 (UM-UC-12): 28.6
- drug sensitivity score DSS3 (UM-UC-14): 28.3
- drug sensitivity score DSS3 (UM-UC-15): 20.9
- drug sensitivity score DSS3 (UM-UC-17): 42.4
- drug sensitivity score DSS3 (UM-UC-18): 39.3
- drug sensitivity score DSS3 (UM-UC-1): 32.7
- drug sensitivity score DSS3 (UM-UC-3): 31.2
- drug sensitivity score DSS3 (UM-UC-5): 31
- drug sensitivity score DSS3 (UM-UC-6): 20.1
- drug sensitivity score DSS3 (UM-UC-9): 14.7

SMILES: O=C(O)CCN1C(=O)/C(=C/c2ccc(-c3ccc([N+](=O)[O-])cc3)o2)SC1=S [KYA1797K] (max dose 10000 nM)
- drug sensitivity score DSS3 5637: 0
- drug sensitivity score DSS3 (BC8149): 0
- drug sensitivity score DSS3 (J82): 0
- drug sensitivity score DSS3 (SCaBER): 0
- drug sensitivity score DSS3 (SW780): 0
- drug sensitivity score DSS3 (T-24): 0
- drug sensitivity score DSS3 (TCCSUP): 0
- drug sensitivity score DSS3 (UM-UC-12): 0
- drug sensitivity score DSS3 (UM-UC-14): 0
- drug sensitivity score DSS3 (UM-UC-15): 1.17
- drug sensitivity score DSS3 (UM-UC-17): 0
- drug sensitivity score DSS3 (UM-UC-18): 0.404
- drug sensitivity score DSS3 (UM-UC-1): 0
- drug sensitivity score DSS3 (UM-UC-3): 0
- drug sensitivity score DSS3 (UM-UC-5): 0
- drug sensitivity score DSS3 (UM-UC-6): 0
- drug sensitivity score DSS3 (UM-UC-9): 0

SMILES: C[C@]12CC[C@@H]3c4ccc(O)cc4C[C@@H](CCCCCCCCC[S+]([O-])CCCC(F)(F)C(F)(F)F)[C@H]3[C@@H]1CC[C@@H]2O (some centres undefined) [fulvestrant] (max dose 10000 nM)
- drug sensitivity score DSS3 5637: 9.25
- drug sensitivity score DSS3 (BC8149): 4.93
- drug sensitivity score DSS3 (J82): 7.77
- drug sensitivity score DSS3 (SCaBER): 18
- drug sensitivity score DSS3 (SW780): 7.02
- drug sensitivity score DSS3 (T-24): 17.8
- drug sensitivity score DSS3 (TCCSUP): 22.6
- drug sensitivity score DSS3 (UM-UC-12): 8.9
- drug sensitivity score DSS3 (UM-UC-14): 13.7
- drug sensitivity score DSS3 (UM-UC-15): 0
- drug sensitivity score DSS3 (UM-UC-17): 9.1
- drug sensitivity score DSS3 (UM-UC-18): 0
- drug sensitivity score DSS3 (UM-UC-1): 23.8
- drug sensitivity score DSS3 (UM-UC-3): 2.82
- drug sensitivity score DSS3 (UM-UC-5): 0
- drug sensitivity score DSS3 (UM-UC-6): 4.54
- drug sensitivity score DSS3 (UM-UC-9): 0

SMILES: O=C(O)CCc1ccc(NCc2cccc(Oc3ccccc3)c2)cc1 [GW9508] (max dose 10000 nM)
- drug sensitivity score DSS3 5637: 0
- drug sensitivity score DSS3 (BC8149): 0
- drug sensitivity score DSS3 (J82): 0
- drug sensitivity score DSS3 (SCaBER): 0
- drug sensitivity score DSS3 (SW780): 0
- drug sensitivity score DSS3 (T-24): 0
- drug sensitivity score DSS3 (TCCSUP): 0
- drug sensitivity score DSS3 (UM-UC-12): 0
- drug sensitivity score DSS3 (UM-UC-14): 0
- drug sensitivity score DSS3 (UM-UC-15): 0
- drug sensitivity score DSS3 (UM-UC-17): 0
- drug sensitivity score DSS3 (UM-UC-18): 0
- drug sensitivity score DSS3 (UM-UC-1): 0
- drug sensitivity score DSS3 (UM-UC-3): 0
- drug sensitivity score DSS3 (UM-UC-5): 0
- drug sensitivity score DSS3 (UM-UC-6): 0
- drug sensitivity score DSS3 (UM-UC-9): 0

SMILES: CCCc1ccc(OCC(=O)N(Cc2nc(-c3cccnc3)no2)C(C)C)cc1 [PI-1840] (max dose 10000 nM)
- drug sensitivity score DSS3 5637: 0
- drug sensitivity score DSS3 (BC8149): 0.337
- drug sensitivity score DSS3 (J82): 0
- drug sensitivity score DSS3 (SCaBER): 0
- drug sensitivity score DSS3 (SW780): 0
- drug sensitivity score DSS3 (T-24): 0
- drug sensitivity score DSS3 (TCCSUP): 0
- drug sensitivity score DSS3 (UM-UC-12): 0
- drug sensitivity score DSS3 (UM-UC-14): 0
- drug sensitivity score DSS3 (UM-UC-15): 0
- drug sensitivity score DSS3 (UM-UC-17): 0
- drug sensitivity score DSS3 (UM-UC-18): 0
- drug sensitivity score DSS3 (UM-UC-1): 1.22
- drug sensitivity score DSS3 (UM-UC-3): 1.18
- drug sensitivity score DSS3 (UM-UC-5): 0
- drug sensitivity score DSS3 (UM-UC-6): 0
- drug sensitivity score DSS3 (UM-UC-9): 0

SMILES: CN1CCC(CNc2ccc3ncc(-c4cccc(OC(F)(F)F)c4)n3n2)CC1 [SGI-1776 free base] (max dose 10000 nM)
- drug sensitivity score DSS3 5637: 2.44
- drug sensitivity score DSS3 (BC8149): 2.26
- drug sensitivity score DSS3 (J82): 0
- drug sensitivity score DSS3 (SCaBER): 0
- drug sensitivity score DSS3 (SW780): 0
- drug sensitivity score DSS3 (T-24): 0
- drug sensitivity score DSS3 (TCCSUP): 7.52
- drug sensitivity score DSS3 (UM-UC-12): 0.61
- drug sensitivity score DSS3 (UM-UC-14): 12
- drug sensitivity score DSS3 (UM-UC-15): 0
- drug sensitivity score DSS3 (UM-UC-17): 2.65
- drug sensitivity score DSS3 (UM-UC-18): 12
- drug sensitivity score DSS3 (UM-UC-1): 3.03
- drug sensitivity score DSS3 (UM-UC-3): 1.58
- drug sensitivity score DSS3 (UM-UC-5): 0
- drug sensitivity score DSS3 (UM-UC-6): 4.74
- drug sensitivity score DSS3 (UM-UC-9): 0

SMILES: CC[C@H](Nc1ncnc2[nH]cnc12)c1oc2ccccc2c(=O)c1-c1cccc(F)c1 [Tenalisib (RP6530)] (max dose 10000 nM)
- drug sensitivity score DSS3 5637: 0
- drug sensitivity score DSS3 (BC8149): 0
- drug sensitivity score DSS3 (J82): 0
- drug sensitivity score DSS3 (SCaBER): 0
- drug sensitivity score DSS3 (SW780): 0
- drug sensitivity score DSS3 (T-24): 0
- drug sensitivity score DSS3 (TCCSUP): 0
- drug sensitivity score DSS3 (UM-UC-12): 0
- drug sensitivity score DSS3 (UM-UC-14): 0
- drug sensitivity score DSS3 (UM-UC-15): 0
- drug sensitivity score DSS3 (UM-UC-17): 0
- drug sensitivity score DSS3 (UM-UC-18): 0.0195
- drug sensitivity score DSS3 (UM-UC-1): 0
- drug sensitivity score DSS3 (UM-UC-3): 0
- drug sensitivity score DSS3 (UM-UC-5): 0
- drug sensitivity score DSS3 (UM-UC-6): 0.00599
- drug sensitivity score DSS3 (UM-UC-9): 0

SMILES: CC(=O)O[C@]1(C(C)=O)CC[C@H]2[C@@H]3C=C(C)C4=CC(=O)CC[C@]4(C)[C@H]3CC[C@@]21C [Megestrol Acetate] (max dose 10000 nM)
- drug sensitivity score DSS3 5637: 0
- drug sensitivity score DSS3 (BC8149): 0
- drug sensitivity score DSS3 (J82): 0
- drug sensitivity score DSS3 (SCaBER): 0
- drug sensitivity score DSS3 (SW780): 0
- drug sensitivity score DSS3 (T-24): 0
- drug sensitivity score DSS3 (TCCSUP): 0
- drug sensitivity score DSS3 (UM-UC-12): 0
- drug sensitivity score DSS3 (UM-UC-14): 0
- drug sensitivity score DSS3 (UM-UC-15): 0
- drug sensitivity score DSS3 (UM-UC-17): 0
- drug sensitivity score DSS3 (UM-UC-18): 0
- drug sensitivity score DSS3 (UM-UC-1): 0
- drug sensitivity score DSS3 (UM-UC-3): 0.0258
- drug sensitivity score DSS3 (UM-UC-5): 0
- drug sensitivity score DSS3 (UM-UC-6): 0
- drug sensitivity score DSS3 (UM-UC-9): 0
